Experimental data as given in the supplement of paper PMC10849652.
Some of the results follow.

Sequences of proteins named here, by UniProt entry; tags and fusion partners are left off. A change or cut given only in a name is not applied to a line headed by its entry.
UniProt Q9Y3C5: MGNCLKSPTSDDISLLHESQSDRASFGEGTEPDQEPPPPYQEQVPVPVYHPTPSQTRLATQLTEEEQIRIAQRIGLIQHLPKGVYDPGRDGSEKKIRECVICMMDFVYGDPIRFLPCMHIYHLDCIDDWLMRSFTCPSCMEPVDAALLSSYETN
UniProt Q9NVW2: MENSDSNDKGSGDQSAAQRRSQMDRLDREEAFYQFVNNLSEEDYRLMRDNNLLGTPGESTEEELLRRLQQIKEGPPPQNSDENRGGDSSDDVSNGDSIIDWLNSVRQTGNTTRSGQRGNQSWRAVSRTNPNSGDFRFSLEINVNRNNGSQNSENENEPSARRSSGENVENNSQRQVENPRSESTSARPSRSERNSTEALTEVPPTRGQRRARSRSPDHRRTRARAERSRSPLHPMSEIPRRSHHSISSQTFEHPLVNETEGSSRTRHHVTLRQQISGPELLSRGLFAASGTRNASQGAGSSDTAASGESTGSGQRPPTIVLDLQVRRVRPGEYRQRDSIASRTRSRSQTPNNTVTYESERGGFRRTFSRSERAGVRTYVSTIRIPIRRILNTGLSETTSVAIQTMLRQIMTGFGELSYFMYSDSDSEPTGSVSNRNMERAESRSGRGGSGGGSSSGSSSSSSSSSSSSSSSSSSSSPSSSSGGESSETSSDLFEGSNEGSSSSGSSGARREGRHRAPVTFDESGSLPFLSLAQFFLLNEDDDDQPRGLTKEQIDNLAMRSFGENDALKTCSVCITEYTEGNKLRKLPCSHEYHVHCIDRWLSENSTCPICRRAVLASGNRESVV
UniProt Q05823: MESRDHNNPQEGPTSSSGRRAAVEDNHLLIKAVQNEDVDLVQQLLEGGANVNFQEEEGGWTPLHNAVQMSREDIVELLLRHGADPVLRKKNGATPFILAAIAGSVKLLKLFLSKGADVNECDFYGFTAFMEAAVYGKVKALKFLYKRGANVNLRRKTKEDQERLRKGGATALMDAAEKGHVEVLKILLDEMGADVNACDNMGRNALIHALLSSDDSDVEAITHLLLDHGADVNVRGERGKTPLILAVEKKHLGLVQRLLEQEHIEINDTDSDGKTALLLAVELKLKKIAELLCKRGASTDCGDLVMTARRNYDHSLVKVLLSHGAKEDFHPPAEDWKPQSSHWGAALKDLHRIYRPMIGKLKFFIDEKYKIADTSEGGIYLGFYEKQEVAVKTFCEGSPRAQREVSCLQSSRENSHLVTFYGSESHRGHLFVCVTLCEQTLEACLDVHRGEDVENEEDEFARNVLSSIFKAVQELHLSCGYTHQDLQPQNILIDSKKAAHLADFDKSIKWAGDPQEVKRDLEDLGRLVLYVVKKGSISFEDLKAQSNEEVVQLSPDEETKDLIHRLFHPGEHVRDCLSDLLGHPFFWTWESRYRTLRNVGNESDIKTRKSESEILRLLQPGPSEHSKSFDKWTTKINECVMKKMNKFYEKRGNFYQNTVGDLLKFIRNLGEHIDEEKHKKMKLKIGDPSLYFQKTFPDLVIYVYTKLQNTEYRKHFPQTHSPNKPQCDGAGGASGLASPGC
UniProt Q96GF1: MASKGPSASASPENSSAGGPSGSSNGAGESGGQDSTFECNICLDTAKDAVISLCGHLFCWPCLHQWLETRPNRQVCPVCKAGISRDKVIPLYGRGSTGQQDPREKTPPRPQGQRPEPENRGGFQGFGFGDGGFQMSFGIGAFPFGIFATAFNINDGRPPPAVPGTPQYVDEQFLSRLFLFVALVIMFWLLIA
UniProt O43566: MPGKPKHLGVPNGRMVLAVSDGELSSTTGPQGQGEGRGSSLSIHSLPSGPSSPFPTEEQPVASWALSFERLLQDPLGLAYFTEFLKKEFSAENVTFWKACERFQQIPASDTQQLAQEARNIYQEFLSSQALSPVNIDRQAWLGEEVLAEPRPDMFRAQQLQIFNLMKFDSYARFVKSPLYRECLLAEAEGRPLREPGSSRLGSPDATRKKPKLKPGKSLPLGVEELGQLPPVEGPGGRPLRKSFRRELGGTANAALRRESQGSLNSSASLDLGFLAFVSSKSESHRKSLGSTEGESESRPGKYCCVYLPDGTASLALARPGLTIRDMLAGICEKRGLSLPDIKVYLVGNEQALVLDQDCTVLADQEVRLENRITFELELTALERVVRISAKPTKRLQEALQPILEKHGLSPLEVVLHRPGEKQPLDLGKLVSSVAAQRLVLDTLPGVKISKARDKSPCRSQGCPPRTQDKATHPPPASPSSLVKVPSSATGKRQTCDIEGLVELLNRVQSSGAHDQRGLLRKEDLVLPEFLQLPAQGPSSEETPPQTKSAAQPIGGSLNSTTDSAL
UniProt Q96E14: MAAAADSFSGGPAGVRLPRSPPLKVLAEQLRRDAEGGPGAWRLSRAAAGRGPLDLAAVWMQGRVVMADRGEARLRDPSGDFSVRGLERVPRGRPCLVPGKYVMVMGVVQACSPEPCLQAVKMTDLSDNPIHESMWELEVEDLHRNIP
UniProt Q92546: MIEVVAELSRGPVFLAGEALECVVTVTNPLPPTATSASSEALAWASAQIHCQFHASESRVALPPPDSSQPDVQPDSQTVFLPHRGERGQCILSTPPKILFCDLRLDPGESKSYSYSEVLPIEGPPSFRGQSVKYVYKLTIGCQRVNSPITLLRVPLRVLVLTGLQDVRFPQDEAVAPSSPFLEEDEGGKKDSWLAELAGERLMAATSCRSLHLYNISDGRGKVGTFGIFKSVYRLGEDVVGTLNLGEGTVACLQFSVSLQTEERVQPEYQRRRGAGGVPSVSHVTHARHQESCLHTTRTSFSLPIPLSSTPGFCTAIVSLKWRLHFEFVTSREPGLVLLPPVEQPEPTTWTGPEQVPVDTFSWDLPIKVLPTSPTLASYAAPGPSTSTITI
UniProt Q6ZS17: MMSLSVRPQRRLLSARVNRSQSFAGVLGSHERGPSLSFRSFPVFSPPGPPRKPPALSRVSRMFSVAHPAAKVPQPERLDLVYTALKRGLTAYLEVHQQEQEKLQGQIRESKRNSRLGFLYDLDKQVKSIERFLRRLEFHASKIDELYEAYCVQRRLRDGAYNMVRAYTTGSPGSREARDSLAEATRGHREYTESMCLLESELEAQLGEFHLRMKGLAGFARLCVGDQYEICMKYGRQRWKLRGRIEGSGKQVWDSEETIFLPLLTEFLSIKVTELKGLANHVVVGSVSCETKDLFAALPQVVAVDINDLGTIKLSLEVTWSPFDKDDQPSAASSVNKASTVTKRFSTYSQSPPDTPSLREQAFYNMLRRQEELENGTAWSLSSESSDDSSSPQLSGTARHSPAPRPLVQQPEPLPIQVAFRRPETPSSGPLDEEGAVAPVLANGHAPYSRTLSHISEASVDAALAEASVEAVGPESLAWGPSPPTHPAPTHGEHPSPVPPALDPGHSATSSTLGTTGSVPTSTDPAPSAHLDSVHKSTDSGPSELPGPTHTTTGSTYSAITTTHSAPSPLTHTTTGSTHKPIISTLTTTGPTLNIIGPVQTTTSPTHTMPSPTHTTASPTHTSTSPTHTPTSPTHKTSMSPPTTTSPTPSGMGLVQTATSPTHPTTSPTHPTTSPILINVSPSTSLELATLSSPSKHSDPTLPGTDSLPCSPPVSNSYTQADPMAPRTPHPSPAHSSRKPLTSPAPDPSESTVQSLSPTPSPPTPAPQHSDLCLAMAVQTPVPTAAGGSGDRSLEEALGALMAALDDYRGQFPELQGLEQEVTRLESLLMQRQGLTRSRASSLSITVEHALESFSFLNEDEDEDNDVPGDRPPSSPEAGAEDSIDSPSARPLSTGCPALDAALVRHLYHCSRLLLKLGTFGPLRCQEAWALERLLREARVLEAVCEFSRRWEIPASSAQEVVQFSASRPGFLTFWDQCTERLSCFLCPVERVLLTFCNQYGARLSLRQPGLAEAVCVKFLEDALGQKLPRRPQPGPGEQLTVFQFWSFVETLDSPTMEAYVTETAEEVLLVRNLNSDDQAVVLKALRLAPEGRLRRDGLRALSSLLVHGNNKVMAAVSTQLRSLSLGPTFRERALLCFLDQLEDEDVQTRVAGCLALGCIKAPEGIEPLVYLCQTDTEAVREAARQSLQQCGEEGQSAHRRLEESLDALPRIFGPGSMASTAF
UniProt Q9Y256: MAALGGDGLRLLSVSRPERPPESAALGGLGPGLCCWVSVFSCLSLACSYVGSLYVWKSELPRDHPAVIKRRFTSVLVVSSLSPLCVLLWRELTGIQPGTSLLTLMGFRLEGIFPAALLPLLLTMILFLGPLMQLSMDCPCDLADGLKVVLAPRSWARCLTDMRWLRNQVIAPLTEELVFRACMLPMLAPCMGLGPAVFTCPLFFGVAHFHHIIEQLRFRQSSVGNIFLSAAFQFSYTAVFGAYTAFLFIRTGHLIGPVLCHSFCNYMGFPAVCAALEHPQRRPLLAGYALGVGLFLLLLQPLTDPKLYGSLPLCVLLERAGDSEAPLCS
UniProt A6NEQ0: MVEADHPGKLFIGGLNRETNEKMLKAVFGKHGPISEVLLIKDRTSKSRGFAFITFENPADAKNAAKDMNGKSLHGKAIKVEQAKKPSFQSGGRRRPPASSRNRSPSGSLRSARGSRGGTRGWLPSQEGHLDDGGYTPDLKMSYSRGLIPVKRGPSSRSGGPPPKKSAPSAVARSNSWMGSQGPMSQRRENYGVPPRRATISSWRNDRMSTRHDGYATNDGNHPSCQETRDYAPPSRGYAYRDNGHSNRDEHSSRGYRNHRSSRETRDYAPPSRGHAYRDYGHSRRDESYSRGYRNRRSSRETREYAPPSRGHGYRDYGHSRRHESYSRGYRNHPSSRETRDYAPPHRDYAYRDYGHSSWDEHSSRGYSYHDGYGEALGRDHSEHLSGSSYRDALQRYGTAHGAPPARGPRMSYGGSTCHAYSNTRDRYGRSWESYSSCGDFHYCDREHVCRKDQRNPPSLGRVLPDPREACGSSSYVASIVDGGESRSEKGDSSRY
UniProt Q96K19: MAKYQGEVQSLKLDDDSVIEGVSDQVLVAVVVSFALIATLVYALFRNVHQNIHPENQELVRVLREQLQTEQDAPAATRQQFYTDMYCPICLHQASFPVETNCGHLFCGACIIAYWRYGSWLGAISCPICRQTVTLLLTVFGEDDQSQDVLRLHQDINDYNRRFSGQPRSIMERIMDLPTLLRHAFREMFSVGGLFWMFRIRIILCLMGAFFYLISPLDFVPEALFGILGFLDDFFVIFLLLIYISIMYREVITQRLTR
UniProt Q9Y225: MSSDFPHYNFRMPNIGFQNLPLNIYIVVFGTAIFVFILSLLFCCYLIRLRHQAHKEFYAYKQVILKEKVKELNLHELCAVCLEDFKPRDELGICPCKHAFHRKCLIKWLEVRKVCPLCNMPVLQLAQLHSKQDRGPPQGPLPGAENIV
UniProt Q96A37: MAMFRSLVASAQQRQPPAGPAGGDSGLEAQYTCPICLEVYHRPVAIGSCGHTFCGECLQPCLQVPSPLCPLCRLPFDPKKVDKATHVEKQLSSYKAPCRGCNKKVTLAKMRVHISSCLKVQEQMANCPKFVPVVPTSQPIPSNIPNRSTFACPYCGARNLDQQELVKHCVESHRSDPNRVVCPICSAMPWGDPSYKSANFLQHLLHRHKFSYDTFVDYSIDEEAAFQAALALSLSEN
UniProt Q96LZ7: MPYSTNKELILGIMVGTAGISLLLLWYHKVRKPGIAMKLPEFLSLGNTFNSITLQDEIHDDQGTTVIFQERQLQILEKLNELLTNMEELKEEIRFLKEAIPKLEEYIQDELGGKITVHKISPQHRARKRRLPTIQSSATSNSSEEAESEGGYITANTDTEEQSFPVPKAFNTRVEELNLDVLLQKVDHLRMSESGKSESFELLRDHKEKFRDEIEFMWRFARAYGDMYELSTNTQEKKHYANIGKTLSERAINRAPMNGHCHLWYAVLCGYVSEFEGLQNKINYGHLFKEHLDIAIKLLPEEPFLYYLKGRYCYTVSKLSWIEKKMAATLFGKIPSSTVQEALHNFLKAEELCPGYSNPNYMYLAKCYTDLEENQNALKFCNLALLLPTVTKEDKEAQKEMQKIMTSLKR
UniProt Q8IYW5, whole entry, looked up: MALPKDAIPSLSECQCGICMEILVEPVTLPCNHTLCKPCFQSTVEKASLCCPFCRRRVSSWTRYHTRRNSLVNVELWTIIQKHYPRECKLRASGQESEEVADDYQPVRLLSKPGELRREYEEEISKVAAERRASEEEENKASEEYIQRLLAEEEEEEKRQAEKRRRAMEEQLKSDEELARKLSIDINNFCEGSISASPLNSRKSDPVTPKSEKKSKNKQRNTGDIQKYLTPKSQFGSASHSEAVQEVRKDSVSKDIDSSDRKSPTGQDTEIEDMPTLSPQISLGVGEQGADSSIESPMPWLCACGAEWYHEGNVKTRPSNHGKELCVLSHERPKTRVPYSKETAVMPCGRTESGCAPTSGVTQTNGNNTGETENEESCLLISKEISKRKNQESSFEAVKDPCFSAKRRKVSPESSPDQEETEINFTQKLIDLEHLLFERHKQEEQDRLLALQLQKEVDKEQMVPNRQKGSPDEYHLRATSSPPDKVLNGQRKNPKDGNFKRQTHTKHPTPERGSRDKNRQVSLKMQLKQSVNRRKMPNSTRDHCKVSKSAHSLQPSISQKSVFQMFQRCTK

The targets below were run with Cc1ccc(C(=O)N(CCCN)[C@@H](c2nc3cc(Cl)ccc3c(=O)n2Cc2ccccc2)C(C)C)cc1 [ispinesib] (assay: log2 fold change, soluble protein after heating vs DMSO (PISA); higher = thermal stabilisation; K562 cells, 10 uM, 30 min; active = over 0.2 and 3.5 SD of the protein, either way, in both replicates (recomputed)).
Outline: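 K562 cells at 2×10^6 cells/mL were treated with 10 μM compound for 30 min. Aliquots were heated for 3 min across 48°C-58°C, pooled, and extracted in PBS with 0.5% NP-40 at 4°C; soluble protein was the supernatant after 21,000xg for 90 min. Soluble protein was quantified by TMTpro 16plex LC-MS/MS with channel sums equalised, and reported as log2 fold change in thermal stability against DMSO controls, with values from duplicates.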

Target	log2 fold change
RNF11 (UniProt Q9Y3C5)	inactive: -0.076
RLIM (UniProt Q9NVW2)	inactive: -0.131
RNASEL (UniProt Q05823)	inactive: -0.072
RNF185 (UniProt Q96GF1)	inactive: -0.024
RGS14 (UniProt O43566)	inactive: -0.124
RMI2 (UniProt Q96E14)	inactive: -0.464
RGP1 (UniProt Q92546)	inactive: 0.134
RCL1 (UniProt Q5VZU2)	inactive: 0.013
RIPOR1 isoform 4 (UniProt Q6ZS17)	inactive: -0.339
RCE1 (UniProt Q9Y256)	inactive: 0.014
RBMY1E (UniProt A6NEQ0)	inactive: -0.148
RNF170 (UniProt Q96K19)	inactive: -0.175
RNF24 isoform 2 (UniProt Q9Y225)	inactive: 0.145
RINT1 (UniProt Q6NUQ1)	inactive: -0.051
RNF166 (UniProt Q96A37)	inactive: 0.012
RBP4 (UniProt P02753)	inactive: -0.027
RFC1 (UniProt P35251)	inactive: -0.325
RIF1 (UniProt Q5UIP0)	inactive: -0.311
RMDN2 isoform 2 (UniProt Q96LZ7)	inactive: -0.112
RNF168 (UniProt Q8IYW5)	inactive: -0.299

As a short view, some entries already given:
Target	log2 fold change
RNF170 (UniProt Q96K19)	inactive: -0.175
RNF24 isoform 2 (UniProt Q9Y225)	inactive: 0.145
RINT1 (UniProt Q6NUQ1)	inactive: -0.051
RNF166 (UniProt Q96A37)	inactive: 0.012
RBP4 (UniProt P02753)	inactive: -0.027
